PubChem BioAssay AID743121 | NCATS – 2013
Screen: 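Knock-downs that sensitise breast cancer cells to camptothecin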 (primary screen). Cell system: MDA-MB-231 cells, a human breast cancer line. Knock-down reagent: single siRNA against human genes, 20 nM siRNA (0.8 pmol per well). Time to read-out: 120 h (drug added 48 h after transfection, read 72 h later). Challenge: camptothecin 20 nM (about EC30) for 72 h; vehicle 0.1% DMSO in parallel plates. Measurement: 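Cell viability by ATP luminescence (CellTiter-Glo) as % of non-targeting siRNA wells, and the log2 ratio of viability without drug over viability with camptothecin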. Reading the numbers: log2 vehicle/camptothecin viability: higher = stronger sensitisation to camptothecin; viability with camptothecin and viability without drug: higher = more viable cells. Hit rule: 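Each gene scored by redundant siRNA activity (RSA) over its individual siRNA ratios; a gene is called active at p < 0.001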.
The whole screen tested about 26,000 reagents; below is an unselected part. In the full data, 167 (0.63%) got an active call. 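Calls are per gene from RSA p-values that are not deposited; an individual active-marked siRNA can sensitise only weakly.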 The numbers tell different reagents against one gene apart. Reagent sequences are not shown.

target | reagent | log2 vehicle/camptothecin viability | viability with camptothecin (% of control) | viability without drug (% of control) | call
OR51B4 (olfactory receptor family 51 subfamily B member 4) | 1 | 0.236 | 67.5 | 79.5 | inactive
OR51B4 (olfactory receptor family 51 subfamily B member 4) | 2 | 0.817 | 17.1 | 30.1 | inactive
OR51B4 (olfactory receptor family 51 subfamily B member 4) | 3 | -0.682 | 83.8 | 52.2 | inactive
OR51B4 (olfactory receptor family 51 subfamily B member 4) | 4 | -0.292 | 54.7 | 44.6 | inactive
ADAM22 (ADAM metallopeptidase domain 22) | 1 | -0.341 | 98.6 | 77.9 | inactive
ADAM22 (ADAM metallopeptidase domain 22) | 2 | 0.302 | 51.8 | 63.9 | inactive
ADAM22 (ADAM metallopeptidase domain 22) | 3 | -0.402 | 120 | 90.9 | inactive
NFX1 (nuclear transcription factor, X-box binding 1) | 1 | 0.158 | 77.1 | 86 | inactive
NFX1 (nuclear transcription factor, X-box binding 1) | 2 | -0.0609 | 46.9 | 45 | inactive
NFX1 (nuclear transcription factor, X-box binding 1) | 3 | -0.0148 | 85.5 | 84.6 | inactive
ALPK2 (alpha kinase 2) | 1 | -0.619 | 84.5 | 55 | inactive
ALPK2 (alpha kinase 2) | 2 | 0.129 | 89.9 | 98.3 | inactive
ALPK2 (alpha kinase 2) | 3 | 0.107 | 34.5 | 37.1 | inactive
ALPK2 (alpha kinase 2) | 4 | 0.172 | 72.3 | 81.4 | inactive
MYL7 (myosin light chain 7) | 1 | 0.311 | 77.6 | 96.2 | inactive
MYL7 (myosin light chain 7) | 2 | -0.695 | 56 | 34.6 | inactive
MYL7 (myosin light chain 7) | 3 | -0.0354 | 111 | 108 | inactive
MYL7 (myosin light chain 7) | 4 | -0.17 | 79.5 | 70.7 | inactive
OXTR (oxytocin receptor) | 1 | 0.0822 | 83.5 | 88.4 | inactive
OXTR (oxytocin receptor) | 2 | -0.391 | 75.2 | 57.4 | inactive
OXTR (oxytocin receptor) | 3 | -0.166 | 108 | 96.6 | inactive
OXTR (oxytocin receptor) | 4 | 0.153 | 47.8 | 53.1 | inactive
NDUFAF5 (NADH:ubiquinone oxidoreductase complex assembly factor 5) | 1 | -0.0158 | 98.2 | 97.1 | inactive
NDUFAF5 (NADH:ubiquinone oxidoreductase complex assembly factor 5) | 2 | -0.169 | 92.8 | 82.5 | inactive
NDUFAF5 (NADH:ubiquinone oxidoreductase complex assembly factor 5) | 3 | -0.277 | 80.9 | 66.8 | inactive
NDUFAF5 (NADH:ubiquinone oxidoreductase complex assembly factor 5) | 4 | -0.0272 | 91.1 | 89.4 | inactive
KCNG2 | 1 | -0.445 | 65.1 | 47.8 | inactive
KCNG2 | 2 | -0.53 | 82.4 | 57 | inactive
KCNG2 | 3 | -0.444 | 100 | 73.9 | inactive
KCNG2 | 4 | 0.00927 | 84.2 | 84.7 | inactive
E2F5 (E2F transcription factor 5) | 1 | -0.623 | 75.4 | 48.9 | inactive
E2F5 (E2F transcription factor 5) | 2 | -0.437 | 91.8 | 67.8 | inactive
E2F5 (E2F transcription factor 5) | 3 | -0.0846 | 109 | 103 | inactive
E2F5 (E2F transcription factor 5) | 4 | -0.174 | 89.5 | 79.3 | inactive
NEK11 (NIMA related kinase 11) | 1 | 0.0425 | 89.2 | 91.9 | inactive
NEK11 (NIMA related kinase 11) | 2 | -0.407 | 98.4 | 74.2 | inactive
NEK11 (NIMA related kinase 11) | 3 | 0.534 | 58 | 84 | inactive
NEK11 (NIMA related kinase 11) | 4 | 0.163 | 90.4 | 101 | inactive
CBS (cystathionine beta-synthase) | 1 | -0.304 | 42.7 | 34.5 | inactive
CBS (cystathionine beta-synthase) | 2 | -0.112 | 66.9 | 61.9 | inactive
CBS (cystathionine beta-synthase) | 3 | -0.196 | 39.4 | 34.4 | inactive
CBS (cystathionine beta-synthase) | 4 | -0.00752 | 63.7 | 63.3 | inactive
SMUG1 | 1 | 0.36 | 28.1 | 36.1 | inactive
SMUG1 | 2 | -0.036 | 79.8 | 77.8 | inactive
SMUG1 | 3 | 0.713 | 33.3 | 54.6 | inactive
RNF38 (ring finger protein 38) | 1 | 0.319 | 60 | 74.8 | inactive
RNF38 (ring finger protein 38) | 2 | 0.0644 | 101 | 105 | inactive
RNF38 (ring finger protein 38) | 3 | 0.117 | 91.3 | 99 | inactive
RNF38 (ring finger protein 38) | 4 | 0.218 | 74.5 | 86.6 | inactive
OXNAD1 (oxidoreductase NAD binding domain containing 1) | 1 | 0.26 | 54.1 | 64.8 | inactive
OXNAD1 (oxidoreductase NAD binding domain containing 1) | 2 | -0.15 | 75 | 67.6 | inactive
OXNAD1 (oxidoreductase NAD binding domain containing 1) | 3 | -0.0302 | 104 | 102 | inactive
OXNAD1 (oxidoreductase NAD binding domain containing 1) | 4 | 0.239 | 65.4 | 77.2 | inactive
CHRNA4 (cholinergic receptor nicotinic alpha 4 subunit) | 1 | 0.151 | 102 | 114 | inactive
CHRNA4 (cholinergic receptor nicotinic alpha 4 subunit) | 2 | -0.173 | 84.8 | 75.2 | inactive
CHRNA4 (cholinergic receptor nicotinic alpha 4 subunit) | 3 | 1.19 | 6.04 | 13.7 | inactive
CHRNA4 (cholinergic receptor nicotinic alpha 4 subunit) | 4 | 0.509 | 52.3 | 74.4 | inactive
CLDN14 (claudin 14) | 1 | 0.121 | 33.8 | 36.7 | inactive
CLDN14 (claudin 14) | 2 | 0.234 | 23.1 | 27.1 | inactive
CLDN14 (claudin 14) | 3 | 0.141 | 7.66 | 8.44 | inactive
CLDN14 (claudin 14) | 4 | -0.19 | 73.2 | 64.2 | inactive
MUC1 (mucin 1, cell surface associated) | 1 | -0.24 | 63.4 | 53.7 | inactive
MUC1 (mucin 1, cell surface associated) | 2 | -0.0932 | 34.6 | 32.4 | inactive
MUC1 (mucin 1, cell surface associated) | 3 | -0.245 | 79.2 | 66.8 | inactive
MUC1 (mucin 1, cell surface associated) | 4 | -0.359 | 67.1 | 52.3 | inactive
ATF1 (activating transcription factor 1) | 1 | 0.137 | 73 | 80.2 | inactive
ATF1 (activating transcription factor 1) | 2 | 0.0456 | 87.2 | 90 | inactive
ATF1 (activating transcription factor 1) | 3 | -0.195 | 77.9 | 68.1 | inactive
ATF1 (activating transcription factor 1) | 4 | -0.00643 | 82.5 | 82.1 | inactive

10 of these entries in another layout:
ADAM22 (ADAM metallopeptidase domain 22) #2 → log2 vehicle/camptothecin viability = 0.302; viability with camptothecin (% of control) = 51.8; viability without drug (% of control) = 63.9; call = inactive
ADAM22 (ADAM metallopeptidase domain 22) #3 → log2 vehicle/camptothecin viability = -0.402; viability with camptothecin (% of control) = 120; viability without drug (% of control) = 90.9; call = inactive
NFX1 (nuclear transcription factor, X-box binding 1) #1 → log2 vehicle/camptothecin viability = 0.158; viability with camptothecin (% of control) = 77.1; viability without drug (% of control) = 86; call = inactive
NFX1 (nuclear transcription factor, X-box binding 1) #2 → log2 vehicle/camptothecin viability = -0.0609; viability with camptothecin (% of control) = 46.9; viability without drug (% of control) = 45; call = inactive
NFX1 (nuclear transcription factor, X-box binding 1) #3 → log2 vehicle/camptothecin viability = -0.0148; viability with camptothecin (% of control) = 85.5; viability without drug (% of control) = 84.6; call = inactive
ALPK2 (alpha kinase 2) #1 → log2 vehicle/camptothecin viability = -0.619; viability with camptothecin (% of control) = 84.5; viability without drug (% of control) = 55; call = inactive
ALPK2 (alpha kinase 2) #2 → log2 vehicle/camptothecin viability = 0.129; viability with camptothecin (% of control) = 89.9; viability without drug (% of control) = 98.3; call = inactive
ALPK2 (alpha kinase 2) #3 → log2 vehicle/camptothecin viability = 0.107; viability with camptothecin (% of control) = 34.5; viability without drug (% of control) = 37.1; call = inactive
ALPK2 (alpha kinase 2) #4 → log2 vehicle/camptothecin viability = 0.172; viability with camptothecin (% of control) = 72.3; viability without drug (% of control) = 81.4; call = inactive
MYL7 (myosin light chain 7) #1 → log2 vehicle/camptothecin viability = 0.311; viability with camptothecin (% of control) = 77.6; viability without drug (% of control) = 96.2; call = inactive
